# According to PubChem BioAssay:
# Some of the results follow. Measured potencies and affinities stand elsewhere. Entries without a call are filed as inconclusive in the source.
# Tests used:
# [1] = Drosophila SCA1 whole organism dose response for polyglutamine toxicity reduction (AID 1595); details: Drosophila SCA1 polyglutamine model, at 1 µM, stronger effect = higher value
# PubChem AID 1597 = details: Drosophila SCA1 polyglutamine model, at 1 µM, stronger effect = higher value
SMILES,suppression of toxicity [1],suppression of toxicity (PubChem AID 1597)
C[C@@H]1CC2C3C[C@H](F)C4=CC(=O)C=CC4(C)C3(F)[C@@H](O)CC2(C)C1C(=O)COC(=O)C(C)(C)C (stereo not given in full),4.29,7.14
CC(=O)Oc1ccc(C(c2ccc(OC(C)=O)cc2)c2ccccn2)cc1,0,7.14
CC12CCC(CC1=O)C2(C)C (stereo not given),1.43,3.57
CNC(=O)Oc1ccc2c(c1)[C@]1(C)CCN(C)[C@@H]1N2C,2.85,4.29
CCN(CC)CCCC(C)Nc1c2ccc(Cl)cc2nc2ccc(OC)cc12 (stereo not given),8.57,7.14
COc1ccccc1OCC(O)CO (stereo not given),4.29,7.14
C[N+](C)(C)CCCCCC[N+](C)(C)C,2.86,2.86
c1ccc2[nH]c(-c3cscn3)nc2c1,1.43,5
CN1C(C(=O)Nc2ccccn2)=C(O)c2ccccc2S1(=O)=O,1.43,8.57
N[C@@H]1CONC1=O,4.29,6.42
O=C1C(O)=C(O)C(=O)C(O)=C1O,4.29,3.57
CC1=NN(c2ccccc2)C(=O)C1,2.85,3.58
C1CNCCN1,4.29,15
CC(=O)OCC[N+](C)(C)C,2.85,7.14
O=C(Cc1cccs1)NC1C(=O)N2C(C(=O)[O-])=C(C[n+]3ccccc3)CSC12 (stereo not given),1.43,0.725
Cc1cc(CC(=O)O)n(C)c1C(=O)c1ccc(Cl)cc1,2.85,3.58
CC(C)CC1NC(=O)CNC1=O (stereo not given),2.85,5
O=C(O)CCCCCCCC(=O)O,0,10.7
COc1ccc(CCN2CCC(Nc3nc4ccccc4n3Cc3ccc(F)cc3)CC2)cc1,4.29,6.43
C[C@H](CCC(=O)O)[C@H]1CCC2C3C(CC[C@@]21C)[C@@]1(C)CC[C@@H](O)C[C@H]1C[C@@H]3O (stereo not given in full),0,0.715
COc1ccc(C2C(=O)c3ccccc3C2=O)cc1,2.86,7.14
c1ccc2c(c1)CCCC2C1=NCCN1 (stereo not given),1.43,3.58
Cn1c(=O)c2c(ncn2C)n(C)c1=O,0,3.58
CC(C)(C)NC[C@@H](O)COc1nsnc1N1CCOCC1,5.71,8.57
CCCOc1ccc2nc(NC(=O)OC)[nH]c2c1,4.29,12.1
CC(=O)Oc1ccc2c(c1)CCC1C2CC[C@@]2(C)C1CC[C@@H]2OC(C)=O (stereo not given in full),4.29,4.29
CC1CCCC(C)N1NC(=O)c1ccc(Cl)c(S(N)(=O)=O)c1 (stereo not given),1.43,5.71
Cc1onc(-c2ccccc2Cl)c1C(=O)N[C@@H]1C(=O)N2[C@@H]1SC(C)(C)[C@@H]2C(=O)O,0,2.15
NCCc1ccc(O)c(O)c1,4.29,6.43
OCc1ccccc1O,10,10.7

# Structures from the list above containing an NH in an aromatic ring (two):
SMILES,suppression of toxicity [1],suppression of toxicity (PubChem AID 1597)
c1ccc2[nH]c(-c3cscn3)nc2c1,1.43,5
CCCOc1ccc2nc(NC(=O)OC)[nH]c2c1,4.29,12.1
